In publication PMC10541190 (The Journal of Clinical Investigation, 2023):

System: SARS-CoV-2 (USA-WA1/2020)
Test: microbe, parasite or virus in culture
Assay type: cell-based
Settings: Severe acute respiratory syndrome coronavirus 2, Vero, 24 h, read-out: SARS-CoV-2 EC50

Structure (SMILES): CN(C)C(=O)C(CCN1CCC(O)(c2ccc(Cl)cc2)CC1)(c1ccccc1)c1ccccc1 [Loperamide]
- EC50: 16.1 µM
